PubChem BioAssay AID504744, Drosophila RNAi Screening Center – 2011

Aim: 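Uncover factors, including feedback loops, that control dAkt activation in fly cells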 (primary screen)
System: Drosophila Kc167 cells
Knock-down reagent: long dsRNA against Drosophila genes, 250 ng dsRNA per well of a 384-well plate
Duration: 3 days of knock-down, then overnight serum-free starvation before stimulation
Challenge: bovine insulin at 387 nM for 10 minutes after 12 h without serum
Read-out: 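In-cell antibody fluorescence for phospho-dAkt in each well over DNA-dye signal, with log2 residuals expressed as z-scores adjusted for cell count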
Hit rule: 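Hit in the insulin screen when the two-replicate mean z-score is more extreme than plus or minus 2.5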
The deposit covers about 23,000 reagents; this is an unselected part of those with a known target gene and a result. Over the whole deposit, 98 (0.43%) are marked active. 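Only hit calls are given; the phospho-dAkt signals, z-scores and hit direction were not deposited.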 A plus sign joins genes that one reagent is predicted to hit.

| Gene | amplicon | call |
| --- | --- | --- |
| Nup358 | DRSC14410 | inactive |
| Or22b | DRSC00765 | inactive |
| CG32163 | DRSC09442 | inactive |
| CG10822 | DRSC06005 | inactive |
| robls54B | DRSC05660 | inactive |
| CG15208 | DRSC19654 | inactive |
| CG13064 | DRSC09947 | inactive |
| Adgf-A2 | DRSC09507 | inactive |
| l(3)07882 | DRSC15882 | inactive |
| CG32511 (retired record) | DRSC20697 | inactive |
| CG33263 | DRSC10108 | inactive |
| Nfs1 | DRSC02154 | inactive |
| CG7519 | DRSC11834 | inactive |
| CG2790 | DRSC04045 | inactive |
| Srr | DRSC16382 | inactive |
| CG1632 | DRSC17558 | inactive |
| CG1632 | DRSC18110 | inactive |
| CG14453 | DRSC11710 | inactive |
| CG10357 | DRSC08155 | inactive |
| CG15715 | DRSC10216 | inactive |
| CG5493 + CG5327 | DRSC06938 | inactive |
| CG8838 | DRSC00712 | inactive |
| CG17738 | DRSC15257 | inactive |
| CG12773 | DRSC18580 | inactive |
| alpha4GT2 | DRSC15905 | inactive |
| brm | DRSC11330 | inactive |
| Mat1 | DRSC07465 | inactive |
| Nil | DRSC15953 | inactive |
| CG17283 | DRSC15219 | inactive |
| SmydA-9 | DRSC17814 | inactive |
| CG9330 | DRSC11066 | inactive |
| CG31157 | DRSC21832 | inactive |
| CG6938 | DRSC10752 | inactive |
| l(1)sc | DRSC18789 | inactive |
| yip2 | DRSC03640 | inactive |
| CG18063 | DRSC01968 | inactive |
| CG14126 (retired record) | DRSC10130 | inactive |
| KrT95D | DRSC16725 | inactive |
| flw | DRSC17992 | inactive |
| flw | DRSC18774 | inactive |
| tyn | DRSC20652 | inactive |
| RapGAP1 | DRSC02293 | inactive |
| RapGAP1 | DRSC02294 | inactive |
| RapGAP1 | DRSC03406 | inactive |
| mRpL49 | DRSC19908 | inactive |
| CG7246 | DRSC18422 | inactive |
| rdgBbeta | DRSC07672 | inactive |
| CG30222 | DRSC04125 | inactive |
| CG30222 | DRSC04262 | inactive |
| CG43867 | DRSC17582 | inactive |
| CG43867 | DRSC17836 | inactive |
| CG43867 | DRSC17837 | inactive |
| CG43867 | DRSC17943 | inactive |
| NT1 | DRSC08530 | inactive |
| NT1 | DRSC22895 | inactive |
| CG12945 | DRSC14573 | inactive |
| CG34327 | DRSC19517 | inactive |
| CG34327 | DRSC22380 | inactive |
| CG10898 | DRSC14279 | inactive |
| CG6340 | DRSC19987 | inactive |
| CG33483 | DRSC14019 | inactive |
| speck | DRSC04608 | inactive |
| CG5418 | DRSC02857 | inactive |
| Spf45 | DRSC03826 | inactive |
| SsRbeta | DRSC11290 | inactive |
| InR | DRSC16717 | active |
| Elys | DRSC19571 | inactive |
| CG16903 | DRSC18561 | inactive |
| D19A | DRSC11133 | active |
| CG13299 | DRSC09973 | inactive |
| Rpp25 | DRSC05002 | inactive |
| Edem2 | DRSC02877 | inactive |
| Invadolysin | DRSC15527 | inactive |
| PLCXD | DRSC02427 | inactive |
| Uhg3 | DRSC22963 | inactive |
| CG7912 | DRSC16343 | inactive |
| CG8066 | DRSC16374 | inactive |
| CG8026 | DRSC07055 | inactive |
| CG8026 | DRSC07056 | inactive |
| Mad1 | DRSC07561 | inactive |
| Spc25 | DRSC14164 | inactive |
| CG2652 | DRSC18501 | inactive |
| CG2652 | DRSC22576 | inactive |
| eff | DRSC16940 | active |
| Rrp40 | DRSC00074 | inactive |
| CG12024 | DRSC08229 | inactive |
| U4-U6-60K | DRSC10624 | inactive |

Copied from the list.
CG13299 [DRSC09973], call → inactive
Under “call”, CG8026 [DRSC07056] has inactive
Result of CG2652 [DRSC22576] under “call”: inactive
Entry of CG13064 [DRSC09947] in “call”: inactive
l(3)07882 [DRSC15882], call = inactive
CG10357 [DRSC08155], call = inactive

The results go on:
| Gene | amplicon | call |
| --- | --- | --- |
| U2A | DRSC06445 | inactive |
| CG44153 | DRSC02228 | inactive |
| CG44153 | DRSC02229 | inactive |
| CG44153 | DRSC02902 | inactive |
| CG44153 | DRSC02903 | inactive |
| link | DRSC06368 | inactive |
| CG7168 | DRSC16208 | inactive |
| CG15283 | DRSC01980 | inactive |
| CG40485 | DRSC20624 | inactive |
| Mfe2 | DRSC19869 | inactive |
| CG32066 | DRSC10652 | inactive |
| CG32066 | DRSC10653 | inactive |
| Oseg1 | DRSC10776 | inactive |
| Sf3a2 | DRSC09801 | inactive |
| Rab18 | DRSC18702 | inactive |
| RpS15 | DRSC07151 | inactive |
| CR46300 | DRSC12467 | inactive |
| kat80 | DRSC20344 | inactive |
| kat80 | DRSC20345 | inactive |
| ms(3)76Cc | DRSC11071 | inactive |
| ms(3)76Cc | DRSC21630 | inactive |
| Oatp33Ea | DRSC02859 | inactive |
| Vps33B | DRSC15722 | inactive |
| CG15483 | DRSC02493 | inactive |
| Pyroxd1 | DRSC02098 | inactive |
| Cngl | DRSC20318 | inactive |
| CG33181 | DRSC17971 | inactive |
| CG33181 | DRSC22376 | inactive |
| reb | DRSC06308 | inactive |
| Blm | DRSC16911 | inactive |
| CG13258 | DRSC02244 | inactive |
| Sec6 | DRSC06932 | inactive |
| CG30412 | DRSC04564 | inactive |
| CG42586 + CG31775 | DRSC01413 | inactive |
| mri | DRSC08259 | inactive |
| C3G | DRSC17745 | inactive |
| C3G | DRSC17929 | inactive |
| C3G | DRSC22329 | inactive |
| ref(2)P | DRSC03601 | inactive |
| Sap47 | DRSC16850 | inactive |
| rad50 | DRSC04523 | inactive |
| Ggt-1 | DRSC19993 | inactive |
| CG10674 | DRSC09775 | inactive |
| Cyp4ac3 | DRSC03304 | inactive |
| CG15553 | DRSC15091 | inactive |
| mRpL12 | DRSC10467 | inactive |
| Ugt37D1 | DRSC02645 | inactive |
| Arpc3B | DRSC20126 | inactive |
| CG2921 | DRSC04324 | inactive |
| CG12920 | DRSC06234 | inactive |
| UBL3 | DRSC20298 | inactive |
| eEF1delta | DRSC02790 | inactive |
| CG10063 | DRSC09688 | inactive |
| MED15 | DRSC00267 | inactive |
| Ect3 | DRSC15462 | inactive |
| Orct2 | DRSC14613 | inactive |
| CG15027 | DRSC19608 | inactive |
| PpD5 | DRSC04641 | inactive |
| Mer | DRSC20259 | inactive |
| CG6770 | DRSC02992 | inactive |
| CG13972 | DRSC14715 | inactive |
| Ilp7 | DRSC17895 | inactive |
| CG14362 | DRSC14824 | inactive |
| TfIIEalpha | DRSC11303 | inactive |
| Ir94a | DRSC13538 | inactive |
| mh | DRSC20168 | inactive |
| Alas | DRSC04044 | inactive |
| CG6472 | DRSC06989 | inactive |
| QIL1 | DRSC10888 | inactive |
| CG32846 | DRSC08012 | inactive |
